US12571791B2, “Methods for evaluating cardiac safety of drug using cardiomyocytes derived from human stem cells” (NEXEL CO., LTD., priority 2021, dated 2026)

Tested on: human stem cell-derived cardiomyocytes

## COC(=O)C1=C(C)NC(C)=C(C(=O)OC)C1c1ccccc1[N+](=O)[O-] [Nifedipine]
  change in FPDcF (field potential duration corrected by Fridericia's formula): increasing or decreasing depending on the administered concentrations
